Here are results for 3 molecules from article doi:10.1101/2021.04.25.441346 (bioRxiv, 2021).

The chains behind the UniProt entries cited, without tags or fusion partners.
UniProt Q38825, whole entry: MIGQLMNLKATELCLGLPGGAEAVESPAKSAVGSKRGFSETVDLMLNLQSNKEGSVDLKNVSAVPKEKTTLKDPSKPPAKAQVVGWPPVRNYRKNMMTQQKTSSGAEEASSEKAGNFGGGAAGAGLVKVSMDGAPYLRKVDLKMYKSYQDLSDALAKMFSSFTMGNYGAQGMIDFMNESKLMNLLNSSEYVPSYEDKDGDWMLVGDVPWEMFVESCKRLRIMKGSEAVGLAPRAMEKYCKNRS

No constants are given. Whether binding was seen depends on the method and setting. Binding seen in cells or lysates may run through a third protein. Some entries that bind do so weakly or less than the wild type. Sequences can lack the tags named with a protein.

The target of assay [1] is T1, YFP-ARF19 (AUXIN RESPONSE FACTOR 19) (Arabidopsis thaliana) (UniProt Q8RYC8).
T1 sequence: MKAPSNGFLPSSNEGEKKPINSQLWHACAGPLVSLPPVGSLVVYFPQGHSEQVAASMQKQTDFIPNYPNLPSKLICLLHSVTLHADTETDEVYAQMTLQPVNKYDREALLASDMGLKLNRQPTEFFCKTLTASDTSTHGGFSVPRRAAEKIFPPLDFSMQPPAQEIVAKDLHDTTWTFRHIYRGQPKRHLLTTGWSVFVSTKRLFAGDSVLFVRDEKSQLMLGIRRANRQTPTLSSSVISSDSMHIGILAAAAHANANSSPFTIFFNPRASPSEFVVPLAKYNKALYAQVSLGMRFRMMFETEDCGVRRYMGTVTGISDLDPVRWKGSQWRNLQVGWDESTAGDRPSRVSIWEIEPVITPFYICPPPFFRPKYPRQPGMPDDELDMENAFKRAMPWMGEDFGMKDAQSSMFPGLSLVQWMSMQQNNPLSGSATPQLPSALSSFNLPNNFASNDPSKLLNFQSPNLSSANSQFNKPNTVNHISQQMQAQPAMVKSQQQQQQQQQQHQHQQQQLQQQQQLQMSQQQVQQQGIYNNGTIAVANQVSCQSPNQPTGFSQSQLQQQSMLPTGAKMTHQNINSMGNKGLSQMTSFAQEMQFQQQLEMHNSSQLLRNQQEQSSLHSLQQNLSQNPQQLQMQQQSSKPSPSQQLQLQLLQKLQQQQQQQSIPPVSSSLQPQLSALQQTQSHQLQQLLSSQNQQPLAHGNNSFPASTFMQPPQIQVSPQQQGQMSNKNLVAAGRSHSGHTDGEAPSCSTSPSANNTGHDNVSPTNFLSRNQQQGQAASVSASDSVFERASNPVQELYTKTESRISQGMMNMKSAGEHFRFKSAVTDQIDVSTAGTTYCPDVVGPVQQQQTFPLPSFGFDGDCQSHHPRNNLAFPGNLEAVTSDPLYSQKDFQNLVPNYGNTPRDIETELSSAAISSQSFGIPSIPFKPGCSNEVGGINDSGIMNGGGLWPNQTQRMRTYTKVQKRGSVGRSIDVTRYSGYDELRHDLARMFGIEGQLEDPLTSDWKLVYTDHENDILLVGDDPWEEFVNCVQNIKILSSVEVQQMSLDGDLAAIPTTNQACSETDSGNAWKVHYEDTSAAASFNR
Put plainly: co-IP.

Assay [2] addresses T2, ARF7-HA (AUXIN RESPONSE FACTOR 7) (Arabidopsis thaliana) (UniProt P93022).
T2 sequence: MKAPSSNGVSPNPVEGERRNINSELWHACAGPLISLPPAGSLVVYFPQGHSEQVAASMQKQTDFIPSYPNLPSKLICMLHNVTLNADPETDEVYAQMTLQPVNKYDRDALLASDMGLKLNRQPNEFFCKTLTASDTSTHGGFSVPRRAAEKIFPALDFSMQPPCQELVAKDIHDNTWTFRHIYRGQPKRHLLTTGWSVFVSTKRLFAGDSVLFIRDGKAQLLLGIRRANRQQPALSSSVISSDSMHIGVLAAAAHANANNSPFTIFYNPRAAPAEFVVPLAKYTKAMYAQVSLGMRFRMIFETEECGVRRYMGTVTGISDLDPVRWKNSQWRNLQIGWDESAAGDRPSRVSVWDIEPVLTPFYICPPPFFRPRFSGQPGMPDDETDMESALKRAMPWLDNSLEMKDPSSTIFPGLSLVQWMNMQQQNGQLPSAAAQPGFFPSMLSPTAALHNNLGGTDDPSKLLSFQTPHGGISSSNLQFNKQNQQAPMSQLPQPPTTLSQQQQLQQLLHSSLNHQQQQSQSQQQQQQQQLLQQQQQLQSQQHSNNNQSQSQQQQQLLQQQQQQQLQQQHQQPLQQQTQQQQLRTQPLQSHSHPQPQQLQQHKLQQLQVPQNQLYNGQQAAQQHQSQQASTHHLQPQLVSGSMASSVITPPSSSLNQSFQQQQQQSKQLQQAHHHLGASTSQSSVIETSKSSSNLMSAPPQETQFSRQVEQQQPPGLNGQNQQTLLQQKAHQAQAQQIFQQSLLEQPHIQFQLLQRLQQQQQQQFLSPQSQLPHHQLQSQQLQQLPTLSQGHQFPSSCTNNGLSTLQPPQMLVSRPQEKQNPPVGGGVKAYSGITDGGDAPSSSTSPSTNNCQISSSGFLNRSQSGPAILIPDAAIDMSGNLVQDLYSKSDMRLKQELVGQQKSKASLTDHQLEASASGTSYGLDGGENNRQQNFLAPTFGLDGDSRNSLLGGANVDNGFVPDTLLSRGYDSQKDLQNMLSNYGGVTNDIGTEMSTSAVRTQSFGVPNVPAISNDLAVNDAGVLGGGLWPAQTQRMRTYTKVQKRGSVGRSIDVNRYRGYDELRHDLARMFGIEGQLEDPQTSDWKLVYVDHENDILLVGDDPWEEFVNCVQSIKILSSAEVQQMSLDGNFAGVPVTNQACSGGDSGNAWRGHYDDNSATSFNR
Put plainly: co-IP.

The target of assay [3] is T3, GST-AFF1 (AUXIN RESPONSE FACTOR F-BOX1, At3g49150) (Arabidopsis thaliana) (UniProt Q9M3B7).
T3 sequence: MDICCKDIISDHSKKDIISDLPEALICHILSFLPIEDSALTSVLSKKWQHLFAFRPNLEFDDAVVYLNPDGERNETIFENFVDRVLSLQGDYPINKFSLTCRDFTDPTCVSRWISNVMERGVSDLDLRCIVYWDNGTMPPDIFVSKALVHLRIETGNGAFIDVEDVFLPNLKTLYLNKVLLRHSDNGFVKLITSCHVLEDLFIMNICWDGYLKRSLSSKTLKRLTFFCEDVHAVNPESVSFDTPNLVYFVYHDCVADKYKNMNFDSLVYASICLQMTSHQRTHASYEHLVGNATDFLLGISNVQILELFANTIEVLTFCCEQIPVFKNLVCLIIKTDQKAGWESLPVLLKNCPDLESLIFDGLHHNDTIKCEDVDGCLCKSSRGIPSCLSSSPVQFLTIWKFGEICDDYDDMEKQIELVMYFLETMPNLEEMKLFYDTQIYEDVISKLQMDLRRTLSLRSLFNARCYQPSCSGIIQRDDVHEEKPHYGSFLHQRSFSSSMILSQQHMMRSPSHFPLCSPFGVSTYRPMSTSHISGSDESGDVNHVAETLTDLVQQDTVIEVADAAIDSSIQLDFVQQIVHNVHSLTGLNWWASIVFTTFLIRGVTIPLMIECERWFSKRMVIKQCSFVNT
Put plainly: pull-down.

Assay [4] has as its target cEYFP-IAA7 (Arabidopsis thaliana) (UniProt Q38825). In words: split reporter.

B1: GST-AFF1 (AUXIN RESPONSE FACTOR F-BOX1, At3g49150) (protein, UniProt Q9M3B7 1-630)
chain: T3 sequence
In the case of B1, the binding entry in assay [1] and in assay [2] was “binds” in each case.

B2: YFP-ARF19 (AUXIN RESPONSE FACTOR 19) (protein, UniProt Q8RYC8 1-1086)
chain: T1 sequence
For the molecule B2, the binding result in assay [3] is “binds”.

B3: ARF19 BiFC fusion (nEYFP-ARF19 and cEYFP-ARF19) (protein, UniProt Q8RYC8 1-1086)
chain: T1 sequence
Regarding B3, the binding result in assay [4] is “binds”.
